# Experimental data taken from PMC9867282.
# Sequences of proteins named here, by UniProt entry; tags and fusion partners are left off.
# UniProt O94986: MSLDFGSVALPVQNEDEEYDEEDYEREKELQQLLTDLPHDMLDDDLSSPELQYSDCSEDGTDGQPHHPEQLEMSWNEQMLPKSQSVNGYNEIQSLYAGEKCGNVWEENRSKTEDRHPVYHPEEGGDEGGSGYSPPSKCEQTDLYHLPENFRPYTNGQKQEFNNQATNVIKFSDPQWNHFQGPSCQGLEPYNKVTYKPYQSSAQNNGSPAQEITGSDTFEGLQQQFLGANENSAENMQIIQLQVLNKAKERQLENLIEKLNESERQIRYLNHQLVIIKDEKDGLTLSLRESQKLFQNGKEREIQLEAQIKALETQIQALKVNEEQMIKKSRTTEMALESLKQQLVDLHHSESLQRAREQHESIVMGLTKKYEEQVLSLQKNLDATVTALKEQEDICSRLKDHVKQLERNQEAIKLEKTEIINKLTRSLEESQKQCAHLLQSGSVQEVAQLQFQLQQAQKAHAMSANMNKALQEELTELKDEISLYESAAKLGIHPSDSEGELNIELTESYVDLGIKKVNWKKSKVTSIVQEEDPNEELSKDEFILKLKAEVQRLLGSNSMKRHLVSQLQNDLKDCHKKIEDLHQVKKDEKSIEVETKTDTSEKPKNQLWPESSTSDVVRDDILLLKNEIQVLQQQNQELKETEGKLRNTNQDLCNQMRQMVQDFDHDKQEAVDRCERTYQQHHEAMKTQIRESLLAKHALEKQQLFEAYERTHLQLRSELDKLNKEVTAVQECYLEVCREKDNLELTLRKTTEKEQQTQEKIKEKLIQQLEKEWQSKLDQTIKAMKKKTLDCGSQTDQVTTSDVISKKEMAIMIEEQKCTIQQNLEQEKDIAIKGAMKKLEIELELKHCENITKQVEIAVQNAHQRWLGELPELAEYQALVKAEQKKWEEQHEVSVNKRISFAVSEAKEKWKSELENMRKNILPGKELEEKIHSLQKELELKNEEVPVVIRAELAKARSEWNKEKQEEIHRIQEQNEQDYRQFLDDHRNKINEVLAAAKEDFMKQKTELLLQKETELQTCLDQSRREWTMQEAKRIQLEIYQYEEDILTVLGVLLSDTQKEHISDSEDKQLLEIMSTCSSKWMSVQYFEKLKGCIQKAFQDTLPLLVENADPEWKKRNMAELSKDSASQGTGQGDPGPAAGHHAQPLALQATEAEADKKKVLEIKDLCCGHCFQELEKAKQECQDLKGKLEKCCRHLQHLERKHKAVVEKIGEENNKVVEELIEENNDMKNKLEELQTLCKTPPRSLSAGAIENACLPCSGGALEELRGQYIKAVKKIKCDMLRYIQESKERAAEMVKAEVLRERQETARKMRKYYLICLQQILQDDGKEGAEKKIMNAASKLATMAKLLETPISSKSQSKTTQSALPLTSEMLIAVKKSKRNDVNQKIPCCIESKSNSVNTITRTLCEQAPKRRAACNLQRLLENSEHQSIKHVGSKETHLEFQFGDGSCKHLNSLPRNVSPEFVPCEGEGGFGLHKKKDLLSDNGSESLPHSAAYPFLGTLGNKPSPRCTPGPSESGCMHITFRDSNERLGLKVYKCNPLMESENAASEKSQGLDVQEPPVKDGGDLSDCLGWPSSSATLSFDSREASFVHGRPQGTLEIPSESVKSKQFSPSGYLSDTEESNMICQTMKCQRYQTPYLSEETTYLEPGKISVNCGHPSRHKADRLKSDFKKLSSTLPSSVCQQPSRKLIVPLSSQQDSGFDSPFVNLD
# UniProt Q1MSJ5: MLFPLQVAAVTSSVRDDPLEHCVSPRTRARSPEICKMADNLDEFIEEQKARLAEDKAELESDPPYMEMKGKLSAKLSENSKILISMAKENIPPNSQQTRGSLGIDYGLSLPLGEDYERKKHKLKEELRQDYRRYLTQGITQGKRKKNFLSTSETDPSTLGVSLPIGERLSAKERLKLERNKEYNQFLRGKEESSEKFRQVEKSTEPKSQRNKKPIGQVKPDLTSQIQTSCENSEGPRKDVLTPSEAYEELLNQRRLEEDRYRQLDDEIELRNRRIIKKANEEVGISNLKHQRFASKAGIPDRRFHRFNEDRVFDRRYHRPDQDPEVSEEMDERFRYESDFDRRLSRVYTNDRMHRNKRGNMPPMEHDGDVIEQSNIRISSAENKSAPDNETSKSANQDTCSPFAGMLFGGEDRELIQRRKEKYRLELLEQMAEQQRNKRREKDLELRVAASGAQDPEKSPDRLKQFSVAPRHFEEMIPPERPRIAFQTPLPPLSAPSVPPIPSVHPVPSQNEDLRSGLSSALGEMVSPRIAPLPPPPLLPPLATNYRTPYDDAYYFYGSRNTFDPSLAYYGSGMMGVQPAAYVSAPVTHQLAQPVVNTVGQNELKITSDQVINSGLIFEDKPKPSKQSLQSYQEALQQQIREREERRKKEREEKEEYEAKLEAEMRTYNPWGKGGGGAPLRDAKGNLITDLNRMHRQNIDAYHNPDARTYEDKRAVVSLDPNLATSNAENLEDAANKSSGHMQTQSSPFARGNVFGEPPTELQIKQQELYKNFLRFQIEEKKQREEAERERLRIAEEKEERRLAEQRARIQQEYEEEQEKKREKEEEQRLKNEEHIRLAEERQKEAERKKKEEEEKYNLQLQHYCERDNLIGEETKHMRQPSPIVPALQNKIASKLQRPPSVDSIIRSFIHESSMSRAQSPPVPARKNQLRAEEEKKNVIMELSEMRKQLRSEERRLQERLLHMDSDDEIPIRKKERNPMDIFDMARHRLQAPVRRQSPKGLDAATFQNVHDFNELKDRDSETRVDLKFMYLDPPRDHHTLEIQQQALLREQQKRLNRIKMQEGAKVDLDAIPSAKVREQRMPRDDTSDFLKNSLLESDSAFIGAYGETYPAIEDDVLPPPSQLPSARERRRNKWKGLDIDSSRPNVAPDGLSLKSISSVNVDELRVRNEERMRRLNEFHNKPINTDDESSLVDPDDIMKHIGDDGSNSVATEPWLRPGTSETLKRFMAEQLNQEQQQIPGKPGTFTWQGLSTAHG
# UniProt Q5VT06: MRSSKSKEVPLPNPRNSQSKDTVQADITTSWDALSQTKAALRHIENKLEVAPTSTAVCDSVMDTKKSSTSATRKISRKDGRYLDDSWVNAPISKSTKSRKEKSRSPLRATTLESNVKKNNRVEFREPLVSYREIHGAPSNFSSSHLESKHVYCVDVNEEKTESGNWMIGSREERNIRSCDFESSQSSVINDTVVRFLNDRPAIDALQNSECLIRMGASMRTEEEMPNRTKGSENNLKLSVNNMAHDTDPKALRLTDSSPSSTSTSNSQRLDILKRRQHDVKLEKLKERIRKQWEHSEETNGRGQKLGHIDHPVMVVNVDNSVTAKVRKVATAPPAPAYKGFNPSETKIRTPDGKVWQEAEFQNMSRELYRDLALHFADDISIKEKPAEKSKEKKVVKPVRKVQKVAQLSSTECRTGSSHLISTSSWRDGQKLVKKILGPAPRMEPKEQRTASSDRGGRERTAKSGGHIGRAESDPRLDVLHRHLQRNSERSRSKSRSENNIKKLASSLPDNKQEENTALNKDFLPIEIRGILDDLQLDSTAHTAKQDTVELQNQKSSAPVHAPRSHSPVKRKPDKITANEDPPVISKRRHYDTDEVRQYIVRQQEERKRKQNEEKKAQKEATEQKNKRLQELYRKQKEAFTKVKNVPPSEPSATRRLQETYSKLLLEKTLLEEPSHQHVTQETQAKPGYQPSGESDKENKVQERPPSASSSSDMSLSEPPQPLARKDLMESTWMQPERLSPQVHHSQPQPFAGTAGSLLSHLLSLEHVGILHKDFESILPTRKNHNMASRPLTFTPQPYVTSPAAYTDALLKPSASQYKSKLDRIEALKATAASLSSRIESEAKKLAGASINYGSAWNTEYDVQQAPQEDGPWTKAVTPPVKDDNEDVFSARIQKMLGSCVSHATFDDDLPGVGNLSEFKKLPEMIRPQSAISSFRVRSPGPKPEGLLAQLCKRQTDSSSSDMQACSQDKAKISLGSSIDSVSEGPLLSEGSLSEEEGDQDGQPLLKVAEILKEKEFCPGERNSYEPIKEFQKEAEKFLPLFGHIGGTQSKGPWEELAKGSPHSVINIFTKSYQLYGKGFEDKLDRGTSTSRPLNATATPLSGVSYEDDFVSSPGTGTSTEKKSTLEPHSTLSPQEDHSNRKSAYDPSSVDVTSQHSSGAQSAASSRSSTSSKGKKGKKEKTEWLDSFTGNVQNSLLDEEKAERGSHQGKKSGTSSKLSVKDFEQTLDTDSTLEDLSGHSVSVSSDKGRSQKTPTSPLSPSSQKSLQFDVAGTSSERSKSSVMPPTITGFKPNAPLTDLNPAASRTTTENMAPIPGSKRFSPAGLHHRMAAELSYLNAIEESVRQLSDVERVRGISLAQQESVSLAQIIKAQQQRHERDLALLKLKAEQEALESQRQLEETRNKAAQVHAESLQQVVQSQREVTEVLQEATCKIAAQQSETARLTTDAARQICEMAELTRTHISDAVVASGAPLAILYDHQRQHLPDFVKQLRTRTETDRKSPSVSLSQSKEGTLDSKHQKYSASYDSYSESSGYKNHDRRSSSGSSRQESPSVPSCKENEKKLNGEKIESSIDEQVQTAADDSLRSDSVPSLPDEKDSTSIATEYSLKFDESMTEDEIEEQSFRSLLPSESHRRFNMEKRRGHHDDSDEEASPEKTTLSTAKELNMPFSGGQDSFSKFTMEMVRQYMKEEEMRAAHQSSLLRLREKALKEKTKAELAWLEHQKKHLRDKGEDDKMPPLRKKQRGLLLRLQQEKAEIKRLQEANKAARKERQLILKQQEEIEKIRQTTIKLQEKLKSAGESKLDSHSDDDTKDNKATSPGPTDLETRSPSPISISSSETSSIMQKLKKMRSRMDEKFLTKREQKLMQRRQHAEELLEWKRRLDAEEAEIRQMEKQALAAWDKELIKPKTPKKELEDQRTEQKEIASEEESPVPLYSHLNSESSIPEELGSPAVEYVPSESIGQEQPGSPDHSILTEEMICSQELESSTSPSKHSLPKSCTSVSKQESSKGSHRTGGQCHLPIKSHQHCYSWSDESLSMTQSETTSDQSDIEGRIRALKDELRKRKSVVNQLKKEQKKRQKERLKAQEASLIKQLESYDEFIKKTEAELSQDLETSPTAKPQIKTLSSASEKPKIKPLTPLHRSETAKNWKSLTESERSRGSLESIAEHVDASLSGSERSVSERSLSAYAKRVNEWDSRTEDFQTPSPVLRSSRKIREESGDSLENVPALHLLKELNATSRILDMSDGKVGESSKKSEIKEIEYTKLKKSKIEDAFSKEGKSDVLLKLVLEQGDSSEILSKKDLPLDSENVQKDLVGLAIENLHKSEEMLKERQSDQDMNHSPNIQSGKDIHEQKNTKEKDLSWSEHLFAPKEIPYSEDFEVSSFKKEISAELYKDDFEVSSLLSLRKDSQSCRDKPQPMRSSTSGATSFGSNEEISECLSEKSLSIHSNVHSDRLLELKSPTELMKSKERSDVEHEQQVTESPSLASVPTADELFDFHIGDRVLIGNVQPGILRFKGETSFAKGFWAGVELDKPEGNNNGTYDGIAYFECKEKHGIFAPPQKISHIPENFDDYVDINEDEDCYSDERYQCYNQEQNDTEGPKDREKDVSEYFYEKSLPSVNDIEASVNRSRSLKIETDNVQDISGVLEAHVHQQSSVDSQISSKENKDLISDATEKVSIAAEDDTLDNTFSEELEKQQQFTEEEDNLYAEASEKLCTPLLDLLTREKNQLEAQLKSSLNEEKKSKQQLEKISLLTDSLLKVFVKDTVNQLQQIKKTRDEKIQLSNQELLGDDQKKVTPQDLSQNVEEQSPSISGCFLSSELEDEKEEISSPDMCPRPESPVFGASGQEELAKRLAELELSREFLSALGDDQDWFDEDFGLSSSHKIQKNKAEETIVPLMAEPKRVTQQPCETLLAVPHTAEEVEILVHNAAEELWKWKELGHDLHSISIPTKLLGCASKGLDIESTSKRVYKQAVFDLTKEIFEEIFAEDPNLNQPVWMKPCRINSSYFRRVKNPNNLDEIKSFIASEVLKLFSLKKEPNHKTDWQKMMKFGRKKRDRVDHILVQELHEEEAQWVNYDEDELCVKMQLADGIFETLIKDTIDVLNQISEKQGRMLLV
# Where two headings read alike, the source gives them in different places. Results are given in words; binding and its absence hold for the method and conditions named. In cells and extracts the contact can be indirect. Here binding means that the protein was enriched with, or labelled near, the bait; the list need not be complete. Tags and fused reporters may be left off the sequences shown.
# T1: FLAG-BirA*-CCP6 (cytosolic carboxypeptidase 6 fused to FLAG-tagged BirA*) (human) (UniProt Q5VU57)
# T1 sequence: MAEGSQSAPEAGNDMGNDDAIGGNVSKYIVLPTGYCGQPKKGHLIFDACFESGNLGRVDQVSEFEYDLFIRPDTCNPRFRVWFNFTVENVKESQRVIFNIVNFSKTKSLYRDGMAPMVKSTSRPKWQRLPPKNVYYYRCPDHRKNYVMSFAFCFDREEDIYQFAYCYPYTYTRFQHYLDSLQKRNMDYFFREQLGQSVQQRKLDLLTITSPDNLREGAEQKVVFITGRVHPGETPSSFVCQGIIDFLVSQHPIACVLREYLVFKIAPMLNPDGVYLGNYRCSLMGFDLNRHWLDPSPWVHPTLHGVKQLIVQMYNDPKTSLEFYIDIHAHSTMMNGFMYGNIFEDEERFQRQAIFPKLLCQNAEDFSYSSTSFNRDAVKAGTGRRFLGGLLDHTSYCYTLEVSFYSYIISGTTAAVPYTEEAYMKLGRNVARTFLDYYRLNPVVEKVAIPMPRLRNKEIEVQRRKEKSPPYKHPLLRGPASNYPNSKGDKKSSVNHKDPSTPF
# Experiments:
# [1] = molecular target: T1, FLAG-BirA*-CCP6 (cytosolic carboxypeptidase 6 fused to FLAG-tagged BirA*) (human); assay: proximity labelling; BioID in Flp-In T-REX 293 stable cell pools expressing BirA*-CCP6; tetracycline 1 ug/mL 24 h, then 50 uM biotin 24 h; lysis in 2% SDS, 8 M urea; streptavidin agarose, on-bead trypsin, LC-MS/MS, LFQ; enrichment against GFP-BirA* (t-test, FDR 0.05); three biological replicates
# [2] = molecular target: T1, FLAG-BirA*-CCP6 (cytosolic carboxypeptidase 6 fused to FLAG-tagged BirA*) (human); assay: as above; remark: listed apart in the source
Molecule,binding [1],binding [2]
CEP152 (from UniProt O94986 1-1710),binds,–
C2CD3 (from UniProt Q4AC94 1-2353),binds,–
CEP192 (from UniProt Q8TEP8 1-2537),binds,–
CLSPN (from UniProt Q9HAW4 1-1339),binds,–
"CEP131 (protein, UniProt Q9UPN4 1-1083) MKGTRAIGSVPERSPAGVDLSLTGLPPPVSRRPGSAATTKPIVRSVSVVTGSEQKRKVLEATGPGGSQAINNLRRSNSTTQVSQPRSGSPRPTEPTDFLMLFEGSPSGKKRPASLSTAPSEKGATWNVLDDQPRGFTLPSNARSSSALDSPAGPRRKECTVALAPNFTANNRSNKGAVGNCVTTMVHNRYTPSERAPPLKSSNQTAPSLNNIIKAATCEGSESSGFGKLPKNVSSATHSARNNTGGSTGLPRRKEVTEEEAERFIHQVNQATVTIQRWYRHQVQRRGAGAARLEHLLQAKREEQRQRSGEGTLLDLHQQKEAARRKAREEKARQARRAAIQELQQKRALRAQKASTAERGPPENPRETRVPGMRQPAQELSPTPGGTAHQALKANNTGGGLPAAGPGDRCLPTSDSSPEPQQPPEDRTQDVLAQDAAGDNLEMMAPSRGSAKSRGPLEELLHTLQLLEKEPDVLPRPRTHHRGRYAWASEVTTEDDASSLTADNLEKFGKLSAFPEPPEDGTLLSEAKLQSIMSFLDEMEKSGQDQLDSQQEGWVPEAGPGPLELGSEVSTSVMRLKLEVEEKKQAMLLLQRALAQQRDLTARRVKETEKALSRQLQRQREHYEATIQRHLAFIDQLIEDKKVLSEKCEAVVAELKQEDQRCTERVAQAQAQHELEIKKLKELMSATEKARREKWISEKTKKIKEVTVRGLEPEIQKLIARHKQEVRRLKSLHEAELLQSDERASQRCLRQAEELREQLEREKEALGQQERERARQRFQQHLEQEQWALQQQRQRLYSEVAEERERLGQQAARQRAELEELRQQLEESSSALTRALRAEFEKGREEQERRHQMELNTLKQQLELERQAWEAGRTRKEEAWLLNREQELREEIRKGRDKEIELVIHRLEADMALAKEESEKAAESRIKRLRDKYEAELSELEQSERKLQERCSELKGQLGEAEGENLRLQGLVRQKERALEDAQAVNEQLSSERSNLAQVIRQEFEDRLAASEEETRQAKAELATLQARQQLELEEVHRRVKTALARKEEAVSSLRTQHEAAVKRADHLEELLEQHRRPTPSTK",–,binds

# The next lines start with the values.
binding [1],binding [2],Molecule
binds,–,CSPP1 (from UniProt Q1MSJ5 1-1256)
binds,–,CEP350 (from UniProt Q5VT06 1-3117)
